Experimental data published in PMC12858346.
No constants are given. Whether binding was seen depends on the method and setting. Binding seen in cells or lysates may run through a third protein. Some entries that bind do so weakly or less than the wild type.

Protein sequences, listed by entry. Tags and fused reporters are not part of them. Lines headed by an entry give the natural chain unless they say otherwise; changes in a name come on top. Residues count along the entry.
UniProt Q9UM54: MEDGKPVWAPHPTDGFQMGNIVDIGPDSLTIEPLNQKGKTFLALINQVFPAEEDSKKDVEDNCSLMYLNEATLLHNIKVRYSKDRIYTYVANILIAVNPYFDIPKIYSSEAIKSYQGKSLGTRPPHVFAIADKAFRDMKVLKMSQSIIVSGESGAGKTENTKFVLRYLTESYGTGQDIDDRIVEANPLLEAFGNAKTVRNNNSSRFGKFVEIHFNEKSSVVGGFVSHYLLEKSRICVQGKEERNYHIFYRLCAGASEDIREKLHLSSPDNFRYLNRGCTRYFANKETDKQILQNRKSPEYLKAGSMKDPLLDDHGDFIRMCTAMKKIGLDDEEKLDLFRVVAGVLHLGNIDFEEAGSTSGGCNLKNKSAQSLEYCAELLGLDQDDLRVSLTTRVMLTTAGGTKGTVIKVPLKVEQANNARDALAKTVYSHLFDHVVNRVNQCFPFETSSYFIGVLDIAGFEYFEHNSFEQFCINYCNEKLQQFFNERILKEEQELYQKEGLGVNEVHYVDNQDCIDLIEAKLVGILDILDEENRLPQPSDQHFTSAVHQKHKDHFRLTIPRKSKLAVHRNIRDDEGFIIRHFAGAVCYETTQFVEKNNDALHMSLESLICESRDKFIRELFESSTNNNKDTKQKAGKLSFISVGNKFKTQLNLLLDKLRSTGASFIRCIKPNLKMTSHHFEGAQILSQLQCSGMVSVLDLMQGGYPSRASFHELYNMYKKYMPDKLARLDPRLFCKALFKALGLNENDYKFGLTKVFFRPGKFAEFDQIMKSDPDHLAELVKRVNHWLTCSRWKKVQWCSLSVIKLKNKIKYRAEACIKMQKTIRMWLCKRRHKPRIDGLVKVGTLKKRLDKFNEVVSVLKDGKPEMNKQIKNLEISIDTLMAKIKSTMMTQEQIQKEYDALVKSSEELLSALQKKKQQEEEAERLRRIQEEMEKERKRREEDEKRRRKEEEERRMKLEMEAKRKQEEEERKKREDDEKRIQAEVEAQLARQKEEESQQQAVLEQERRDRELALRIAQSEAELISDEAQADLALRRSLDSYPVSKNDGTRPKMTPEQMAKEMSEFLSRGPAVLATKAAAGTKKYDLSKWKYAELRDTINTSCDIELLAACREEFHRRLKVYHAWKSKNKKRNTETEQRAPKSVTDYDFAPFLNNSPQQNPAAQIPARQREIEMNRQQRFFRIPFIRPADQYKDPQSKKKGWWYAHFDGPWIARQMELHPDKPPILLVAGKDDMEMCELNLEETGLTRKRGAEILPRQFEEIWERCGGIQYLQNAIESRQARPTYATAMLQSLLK
eGFP-myosin VI-ΔMotor (1-729): residues 730-1294 of Q9UM54
UniProt P46937: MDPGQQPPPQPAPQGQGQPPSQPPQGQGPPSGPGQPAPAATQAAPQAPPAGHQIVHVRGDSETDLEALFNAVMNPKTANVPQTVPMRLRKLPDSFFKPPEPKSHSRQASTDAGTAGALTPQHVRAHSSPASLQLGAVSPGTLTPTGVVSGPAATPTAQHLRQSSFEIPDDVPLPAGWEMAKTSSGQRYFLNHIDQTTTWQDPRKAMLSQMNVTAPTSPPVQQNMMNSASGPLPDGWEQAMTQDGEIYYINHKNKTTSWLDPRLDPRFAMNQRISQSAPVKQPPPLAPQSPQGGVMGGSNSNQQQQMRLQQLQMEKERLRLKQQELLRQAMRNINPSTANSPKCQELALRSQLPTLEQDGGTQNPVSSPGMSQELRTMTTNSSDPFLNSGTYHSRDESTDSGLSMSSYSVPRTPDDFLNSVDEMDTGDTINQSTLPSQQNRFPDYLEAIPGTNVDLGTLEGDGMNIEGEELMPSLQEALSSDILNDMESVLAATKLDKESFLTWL
UniProt P10275: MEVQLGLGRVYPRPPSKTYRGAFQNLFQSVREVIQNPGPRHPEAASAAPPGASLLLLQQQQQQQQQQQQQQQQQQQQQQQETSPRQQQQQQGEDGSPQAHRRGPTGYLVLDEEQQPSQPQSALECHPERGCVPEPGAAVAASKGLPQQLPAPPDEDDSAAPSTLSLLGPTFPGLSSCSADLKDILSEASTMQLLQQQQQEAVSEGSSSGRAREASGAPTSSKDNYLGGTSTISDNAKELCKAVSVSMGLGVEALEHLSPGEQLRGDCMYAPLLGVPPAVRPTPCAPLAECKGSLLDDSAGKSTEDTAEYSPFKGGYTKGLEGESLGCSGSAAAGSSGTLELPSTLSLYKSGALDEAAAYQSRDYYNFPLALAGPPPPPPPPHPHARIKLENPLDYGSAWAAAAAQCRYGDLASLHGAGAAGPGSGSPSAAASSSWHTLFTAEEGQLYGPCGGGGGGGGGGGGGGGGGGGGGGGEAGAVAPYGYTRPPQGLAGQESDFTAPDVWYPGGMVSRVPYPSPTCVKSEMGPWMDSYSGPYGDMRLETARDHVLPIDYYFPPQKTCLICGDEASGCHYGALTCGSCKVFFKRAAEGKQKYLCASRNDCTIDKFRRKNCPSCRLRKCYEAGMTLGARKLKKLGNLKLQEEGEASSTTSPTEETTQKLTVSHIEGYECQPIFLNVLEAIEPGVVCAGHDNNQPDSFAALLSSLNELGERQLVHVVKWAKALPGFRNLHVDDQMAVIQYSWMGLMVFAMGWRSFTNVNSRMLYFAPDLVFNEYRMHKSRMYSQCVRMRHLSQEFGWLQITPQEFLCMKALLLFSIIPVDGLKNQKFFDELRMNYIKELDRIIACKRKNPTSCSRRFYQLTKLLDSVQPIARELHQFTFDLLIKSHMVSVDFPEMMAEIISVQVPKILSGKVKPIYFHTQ

Tests used:
[1] = target: myosin VI, endogenous in LNCaP cells (human (endogenous in LNCaP)) (UniProt Q9UM54); test: proximity ligation; Duolink PLA on endogenous proteins in LNCaP cells, pre-extracted with CSK buffer and fixed; EtOH, 10 nM DHT 24 h, DHT + TIP 1 h or DHT + siMyo6; nuclear PLA foci counted
[2] = target: eGFP-myosin VI (full-length), expressed in HeLa cells (UniProt Q9UM54); test: co-IP; GFP-Trap immunoprecipitation from lysates of HeLa cells co-expressing BFP-AR with eGFP-myosin VI, eGFP-myosin VI-ΔMotor (1-729) or eGFP alone; EtOH or DHT; Western blot for AR and GFP
[3] = target: eGFP-myosin VI-ΔMotor (1-729) (UniProt Q9UM54); test: as above

Row | Molecule | binding [1] | binding [2] | binding [3]
1 | Yes-associated protein (YAP) (from UniProt P46937 1-504) | no binding |  | 
2 | disheveled-associated activator of morphogenesis 2 (DAAM2), endogenous in LNCaP cells (protein, UniProt Q86T65 1-1068) MAPRKRSHHGLGFLCCFGGSDIPEINLRDNHPLQFMEFSSPIPNAEELNIRFAELVDELDLTDKNREAMFALPPEKKWQIYCSKKKEQEDPNKLATSWPDYYIDRINSMAAMQSLYAFDEEETEMRNQVVEDLKTALRTQPMRFVTRFIELEGLTCLLNFLRSMDHATCESRIHTSLIGCIKALMNNSQGRAHVLAQPEAISTIAQSLRTENSKTKVAVLEILGAVCLVPGGHKKVLQAMLHYQVYAAERTRFQTLLNELDRSLGRYRDEVNLKTAIMSFINAVLNAGAGEDNLEFRLHLRYEFLMLGIQPVIDKLRQHENAILDKHLDFFEMVRNEDDLELARRFDMVHIDTKSASQMFELIHKKLKYTEAYPCLLSVLHHCLQMPYKRNGGYFQQWQLLDRILQQIVLQDERGVDPDLAPLENFNVKNIVNMLINENEVKQWRDQAEKFRKEHMELVSRLERKERECETKTLEKEEMMRTLNKMKDKLARESQELRQARGQVAELVAQLSELSTGPVSSPPPPGGPLTLSSSMTTNDLPPPPPPLPFACCPPPPPPPLPPGGPPTPPGAPPCLGMGLPLPQDPYPSSDVPLRKKRVPQPSHPLKSFNWVKLNEERVPGTVWNEIDDMQVFRILDLEDFEKMFSAYQRHQKELGSTEDIYLASRKVKELSVIDGRRAQNCIILLSKLKLSNEEIRQAILKMDEQEDLAKDMLEQLLKFIPEKSDIDLLEEHKHEIERMARADRFLYEMSRIDHYQQRLQALFFKKKFQERLAEAKPKVEAILLASRELVRSKRLRQMLEVILAIGNFMNKGQRGGAYGFRVASLNKIADTKSSIDRNISLLHYLIMILEKHFPDILNMPSELQHLPEAAKVNLAELEKEVGNLRRGLRAVEVELEYQRRQVREPSDKFVPVMSDFITVSSFSFSELEDQLNEARDKFAKALMHFGEHDSKMQPDEFFGIFDTFLQAFSEARQDLEAMRRRKEEEERRARMEAMLKEQRERERWQRQRKVLAAGSSLEEGGEFDDLVSALRSGEVFDKDLCKLKRSRKRSGSQALEVTRERAINRLNY | binds |  | 

Now from value to molecule:

Row | binding [1] | binding [2] | binding [3] | Molecule
3 |  | binds | no binding | blue fluorescent protein (BFP)-AR (from UniProt P10275 1-920) (receptor)
4 | binds |  |  | Disabled-2 (Dab2) (protein, UniProt P98082 1-770) MSNEVETSATNGQPDQQAAPKAPSKKEKKKGPEKTDEYLLARFKGDGVKYKAKLIGIDDVPDARGDKMSQDSMMKLKGMAAAGRSQGQHKQRIWVNISLSGIKIIDEKTGVIEHEHPVNKISFIARDVTDNRAFGYVCGGEGQHQFFAIKTGQQAEPLVVDLKDLFQVIYNVKKKEEEKKKIEEASKAVENGSEALMILDDQTNKLKSGVDQMDLFGDMSTPPDLNSPTESKDILLVDLNSEIDTNQNSLRENPFLTNGITSCSLPRPTPQASFLPENAFSANLNFFPTPNPDPFRDDPFTQPDQSTPSSFDSLKSPDQKKENSSSSSTPLSNGPLNGDVDYFGQQFDQISNRTGKQEAQAGPWPFSSSQTQPAVRTQNGVSEREQNGFSVKSSPNPFVGSPPKGLSIQNGVKQDLESSVQSSPHDSIAIIPPPQSTKPGRGRRTAKSSANDLLASDIFAPPVSEPSGQASPTGQPTALQPNPLDLFKTSAPAPVGPLVGLGGVTVTLPQAGPWNTASLVFNQSPSMAPGAMMGGQPSGFSQPVIFGTSPAVSGWNQPSPFAASTPPPVPVVWGPSASVAPNAWSTTSPLGNPFQSNIFPAPAVSTQPPSMHSSLLVTPPQPPPRAGPPKDISSDAFTALDPLGDKEIKDVKEMFKDFQLRQPPAVPARKGEQTSSGTLSAFASYFNSKVGIPQENADHDDFDANQLLNKINEPPKPAPRQVSLPVTKSTDNAFENPFFKDSFGSSQASVASSQPVSSEMYRDPFGNPFA
